Experimental findings from patent US20240336661A1, “PEPTIDES DERIVED FROM RUMINOCOCCUS TORQUES” (University of Copenhagen, priority 2021, published 2024) are described below.

Sequences of proteins named here, by UniProt entry; tags and fusion partners are left off. A change or cut given only in a name is not applied to a line headed by its entry.
UniProt P06756: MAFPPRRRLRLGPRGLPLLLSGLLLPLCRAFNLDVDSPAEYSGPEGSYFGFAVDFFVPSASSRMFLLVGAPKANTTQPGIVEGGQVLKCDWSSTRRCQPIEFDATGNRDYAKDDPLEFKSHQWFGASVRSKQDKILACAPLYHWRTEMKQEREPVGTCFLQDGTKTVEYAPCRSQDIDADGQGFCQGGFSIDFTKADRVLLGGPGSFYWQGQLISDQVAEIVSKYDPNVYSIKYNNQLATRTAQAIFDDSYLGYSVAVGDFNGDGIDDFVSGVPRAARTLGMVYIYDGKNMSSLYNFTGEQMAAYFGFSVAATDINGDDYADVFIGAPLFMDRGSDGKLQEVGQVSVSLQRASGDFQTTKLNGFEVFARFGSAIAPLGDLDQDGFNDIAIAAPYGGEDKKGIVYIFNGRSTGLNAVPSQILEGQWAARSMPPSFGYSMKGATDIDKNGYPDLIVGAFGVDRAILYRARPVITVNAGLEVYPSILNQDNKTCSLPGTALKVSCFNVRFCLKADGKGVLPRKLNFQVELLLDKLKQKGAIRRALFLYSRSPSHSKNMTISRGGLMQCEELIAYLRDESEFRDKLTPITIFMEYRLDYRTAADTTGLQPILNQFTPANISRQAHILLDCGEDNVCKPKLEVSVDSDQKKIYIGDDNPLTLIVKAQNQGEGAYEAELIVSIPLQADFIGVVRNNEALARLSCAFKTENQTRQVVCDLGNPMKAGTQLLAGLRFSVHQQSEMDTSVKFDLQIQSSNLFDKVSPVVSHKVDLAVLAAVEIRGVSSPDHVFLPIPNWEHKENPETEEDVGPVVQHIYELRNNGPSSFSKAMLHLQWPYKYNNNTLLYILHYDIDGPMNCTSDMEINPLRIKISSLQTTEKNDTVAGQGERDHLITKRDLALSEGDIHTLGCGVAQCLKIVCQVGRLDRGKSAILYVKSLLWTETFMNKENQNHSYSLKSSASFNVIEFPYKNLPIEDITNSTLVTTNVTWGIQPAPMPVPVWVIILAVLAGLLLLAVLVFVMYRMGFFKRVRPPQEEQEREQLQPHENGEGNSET

Assay [1] concerns the target His-tag integrin αV/β5 receptor (UniProt P06756). In words: co-immunoprecipitation on Ni-NTA: 100 nM Fc-fused RUCILP2 with 5 nM His-tag αV/β5 integrin, immunoblot.
Assay [2] shares this target. In words: co-immunoprecipitation on Ni-NTA, immunoblot (FIG. 6).

These are yes or no findings as the source states them, for the method shown. Binding seen in cells or lysates may run through a third protein. Some binding calls cover weakened binding; strength is not graded here. Where a sequence is shown, tags or fusion partners need not be part of it.

B1: Fc-fused RUCILP2 (Fc fusion, not shown: a dimerising Fc or GST)
chain: APVDVKVSEITETSAKASWKNAADGKEAAGYNVYVDGVKLNKELLTEASCGLTNLKAETTYFVEVTAVDAAGNESVKSEKVTFKTLK
As to B1, the binding entry in assay [1] and in assay [2] was “binds” throughout.
